Measurements: PubChem BioAssay AID188 (DTP/NCI, 2004)
The mice bore no tumour; each value counts animals alive of those treated. Survivors were counted at the toxicity check, usually on the fifth day, unless a day is given; later deaths do not show. Schedules are NCI's codes, taken here to give the interval after Q, in days (D) or hours (H), and the number of doses after X. Some structures stand for samples that the source files as different forms (salt, stereo form or complex); doses refer to the form tested. Some entries were tested several times; the results are listed from low to high.

Tested on: CD2F1 mice, nontumored, toxicity/survival
Experiment: NCI In Vivo Anticancer Drug Screen. Data for tumor model Nontumored Animals (Toxicity Test) in CD2F1 (CDF1) mice

For `O=C1c2c(O)ccc(O)c2C(=O)c2c(NCCNCCO)ccc(NCCNCCO)c21`, the survivor count (dose: 3.89 mg/kg/injection, schedule: Q01DX001 (ip), vehicle: acid diluted with saline) was 10 of 10, the survivor count (dose: 3.89 mg/kg/injection, schedule: Q01DX001 (sc), vehicle: acid diluted with saline) was 10 of 10 and the survivor count (dose: 6.0 mg/kg/injection, schedule: Q01DX001 (ip), vehicle: saline) was 10 of 10. The survivor count (dose: 6.48 mg/kg/injection, schedule: Q01DX001 (ip), vehicle: acid diluted with saline) was 10 of 10, the survivor count (dose: 6.48 mg/kg/injection, schedule: Q01DX001 (sc), vehicle: acid diluted with saline) was 10 of 10 and the survivor count (dose: 8.0 mg/kg/injection, schedule: Q01DX001 (ip), vehicle: saline) was 10 of 10. The survivor count (dose: 10.64 mg/kg/injection, schedule: Q01DX001 (ip), vehicle: saline) was 10 of 10, the survivor count (dose: 10.8 mg/kg/injection, schedule: Q01DX001 (ip), vehicle: acid diluted with saline) was 10 of 10 and the survivor count (dose: 10.8 mg/kg/injection, schedule: Q01DX001 (sc), vehicle: acid diluted with saline) was 10 of 10. The survivor count (dose: 14.0 mg/kg/injection, schedule: Q01DX001 (iv), vehicle: acid diluted with saline) was 10 of 10, the survivor count (dose: 14.2 mg/kg/injection, schedule: Q01DX001 (iv), vehicle: other) was 8 of 10 and 10 of 10 and the survivor count (dose: 14.24 mg/kg/injection, schedule: Q01DX001 (ip), vehicle: saline) was 10 of 10. For the same molecule, the survivor count (dose: 14.24 mg/kg/injection, schedule: Q01DX001 (iv), vehicle: acid diluted with saline) was 10 of 10, the survivor count (dose: 18.0 mg/kg/injection, schedule: Q01DX001 (ip), vehicle: acid diluted with saline) was 10 of 10 and the survivor count (dose: 18.0 mg/kg/injection, schedule: Q01DX001 (sc), vehicle: acid diluted with saline) was 10 of 10. The survivor count (dose: 18.95 mg/kg/injection, schedule: Q01DX001 (ip), vehicle: saline) was 10 of 10, the survivor count (dose: 18.98 mg/kg/injection, schedule: Q01DX001 (iv), vehicle: acid diluted with saline) was 10 of 10 and the survivor count (dose: 19.0 mg/kg/injection, schedule: Q01DX001 (iv), vehicle: other) was 10 of 10. For the same molecule, the survivor count (dose: 25.3 mg/kg/injection, schedule: Q01DX001 (iv), vehicle: other) was 9 of 10 and 10 of 10, the survivor count (dose: 25.31 mg/kg/injection, schedule: Q01DX001 (ip), vehicle: saline) was 10 of 10 and the survivor count (dose: 25.31 mg/kg/injection, schedule: Q01DX001 (iv), vehicle: acid diluted with saline) was 8 of 10 and 10 of 10. The survivor count (dose: 30.0 mg/kg/injection, schedule: Q01DX001 (ip), vehicle: acid diluted with saline) was 8 of 10 and 10 of 10, the survivor count (dose: 30.0 mg/kg/injection, schedule: Q01DX001 (sc), vehicle: acid diluted with saline) was 8 of 10 and 10 of 10 and the survivor count (dose: 33.7 mg/kg/injection, schedule: Q01DX001 (iv), vehicle: other) was 4 of 10 and 6 of 10. For the same molecule, the survivor count (dose: 33.75 mg/kg/injection, schedule: Q01DX001 (ip), vehicle: saline) was 10 of 10, the survivor count (dose: 33.75 mg/kg/injection, schedule: Q01DX001 (iv), vehicle: acid diluted with saline) was 6 of 10 and 10 of 10 and the survivor count (dose: 45.0 mg/kg/injection, schedule: Q01DX001 (ip), vehicle: saline) was 10 of 10. For the same molecule, the survivor count (dose: 45.0 mg/kg/injection, schedule: Q01DX001 (iv), vehicle: acid diluted with saline) was 4 of 10 and 10 of 10, the survivor count (dose: 45.0 mg/kg/injection, schedule: Q01DX001 (iv), vehicle: other) was 1 of 10 and 3 of 10 and the survivor count (dose: 50.0 mg/kg/injection, schedule: Q01DX001 (ip), vehicle: acid diluted with saline) was 1 of 10 and 5 of 10. For the same molecule, the survivor count (dose: 50.0 mg/kg/injection, schedule: Q01DX001 (sc), vehicle: acid diluted with saline) was 1 of 10 and 6 of 10, the survivor count (dose: 60.0 mg/kg/injection, schedule: Q01DX001 (ip), vehicle: saline) was 8 of 10 and the survivor count (dose: 60.0 mg/kg/injection, schedule: Q01DX001 (iv), vehicle: acid diluted with saline) was 6 of 10 and 10 of 10. For the same molecule, the survivor count (dose: 60.0 mg/kg/injection, schedule: Q01DX001 (iv), vehicle: other) was 4 of 10, the survivor count (dose: 80.0 mg/kg/injection, schedule: Q01DX001 (ip), vehicle: saline) was 8 of 10 and the survivor count (dose: 80.0 mg/kg/injection, schedule: Q01DX001 (iv), vehicle: acid diluted with saline) was 2 of 10 and 10 of 10. The survivor count (dose: 80.0 mg/kg/injection, schedule: Q01DX001 (iv), vehicle: other) was 1 of 10 and 9 of 10, the survivor count (dose: 83.3 mg/kg/injection, schedule: Q01DX001 (ip), vehicle: acid diluted with saline) was 1 of 10 and 2 of 10 and the survivor count (dose: 83.3 mg/kg/injection, schedule: Q01DX001 (sc), vehicle: acid diluted with saline) was 3 of 10 and 5 of 10. The survivor count (dose: 106.0 mg/kg/injection, schedule: Q01DX001 (iv), vehicle: acid diluted with saline) was 3 of 10 and 7 of 10, the survivor count (dose: 106.7 mg/kg/injection, schedule: Q01DX001 (ip), vehicle: saline) was 2 of 10 and the survivor count (dose: 106.7 mg/kg/injection, schedule: Q01DX001 (iv), vehicle: other) was 0 of 10. The survivor count (dose: 142.0 mg/kg/injection, schedule: Q01DX001 (iv), vehicle: acid diluted with saline) was 5 of 10 and 2 of 2, the survivor count (dose: 142.2 mg/kg/injection, schedule: Q01DX001 (iv), vehicle: other) was 0 of 10 and the survivor count (dose: 142.4 mg/kg/injection, schedule: Q01DX001 (ip), vehicle: saline) was 0 of 9. The survivor count (dose: 189.6 mg/kg/injection, schedule: Q01DX001 (ip), vehicle: saline) was 0 of 5 and the survivor count (dose: 189.6 mg/kg/injection, schedule: Q01DX001 (iv), vehicle: other) was 0 of 10.
For `Nc1nc(N)nc(CCC(Cl)(Cl)Cl)n1`, the survivor count (dose: 1.0 mg/kg/injection, schedule: Q01DX001 (ip), vehicle: distilled water + Tween-80) was 2 of 2, the survivor count (dose: 10.0 mg/kg/injection, schedule: Q01DX001 (ip), vehicle: distilled water + Tween-80) was 2 of 2 and the survivor count (dose: 100.0 mg/kg/injection, schedule: Q01DX001 (ip), vehicle: distilled water + Tween-80) was 2 of 2.
With `CN(C)N=Nc1ccc(C(N)=O)cc1` the survivor count (dose: 59.0 mg/kg/injection, schedule: Q01DX009 (ip), vehicle: Klucel (hydroxypropylcellulose) (HPC)) was 10 of 10, the survivor count (dose: 89.0 mg/kg/injection, schedule: Q01DX009 (ip), vehicle: Klucel (hydroxypropylcellulose) (HPC)) was 10 of 10 and the survivor count (dose: 133.0 mg/kg/injection, schedule: Q01DX009 (ip), vehicle: Klucel (hydroxypropylcellulose) (HPC)) was 10 of 10. The survivor count (dose: 200.0 mg/kg/injection, schedule: Q01DX009 (ip), vehicle: Klucel (hydroxypropylcellulose) (HPC)) was 6 of 10 and the survivor count (dose: 300.0 mg/kg/injection, schedule: Q01DX009 (ip), vehicle: Klucel (hydroxypropylcellulose) (HPC)) was 0 of 10.
